Measured values taken from PubChem BioAssay AID330 (DTP/NCI, 2004).
The list does not hold the whole screen: it is rich in T/C values a quarter to a half above the control, in often repeated tests (any T/C) and in doses without a T/C. Other doses and runs of a compound stand elsewhere. T/C is the treated group as % of the vehicle group. Some entries give survivors of the animals treated and no T/C: the source holds a T/C of zero for them, seemingly a mark for toxic or unscored doses. Some doses without a T/C left all or most animals alive at the check, yet need not have been tolerated: survival well below the control is almost never listed, so the zero probably covers shortened survival too. Survivors were counted at the toxicity check, usually on the fifth day, unless a day is given; later deaths do not show. Schedules are NCI's codes, read here as Q, the interval in days (D) or hours (H), X, the number of doses. Some molecules as drawn cover several salts, stereoisomers or complexes of the source; a dose is that of the sample tested. Some entries hold several experiments; their values stand side by side, smallest first. For survival time, this PubChem deposit counts one and a half times the control or more as active, and values a quarter to a half above the control carry no call in these data; other NCI protocols may use other cut-offs. Some T/C values carry the count of animals alive at the toxicity check (mostly the fifth day); without a count, all were alive then.

Test system: P388 leukemia ip, CD2F1 mice, survival T/C
Test: NCI In Vivo Anticancer Drug Screen. Data for tumor model P388 Leukemia (intraperitoneal) in CD2F1 (CDF1) mice
Conditions: T/C endpoint: median survival time, higher T/C = longer survival
[1] = dose: 100.0 mg/kg/injection, schedule: Q01DX009 (ip), vehicle: saline with Tween-80
[2] = dose: 200.0 mg/kg/injection, schedule: Q01DX009 (ip), vehicle: saline with Tween-80
[3] = dose: 25.0 mg/kg/injection, schedule: Q01DX005 (ip), vehicle: saline with Tween-80
[4] = dose: 50.0 mg/kg/injection, schedule: Q01DX005 (ip), vehicle: saline with Tween-80
[5] = dose: 100.0 mg/kg/injection, schedule: Q01DX005 (ip), vehicle: saline with Tween-80
[6] = dose: 200.0 mg/kg/injection, schedule: Q01DX005 (ip), vehicle: saline with Tween-80

In the case of `[O-][Br+2]([O-])O`, the survivor count (dose: 240.0 mg/kg/injection, schedule: Q01DX005 (ip), vehicle: saline) is reported as 0 of 6.
With `CCOc1ccc(N=c2ccn3ccccc3c2)cc1` the survivor count (dose: 50.0 mg/kg/injection, schedule: Q01DX009 (ip), vehicle: saline with Tween-80) was 0 of 6, the survivor count [1] was 0 of 6 and the survivor count [2] was 0 of 6.
`CC(C)(C)N(C/C=C/CN(Cc1ccccc1)Cc1ccccc1)C(C)(C)C` was tested, and the survivor count [2] was 4 of 6.
For `CCC/C(=N\NC(=S)N1CC2CCC(CC2)C1)c1ccccn1`, the T/C [3] was 126 % of control, the T/C [4] was 138 % of control and the survivor count [4] was 2 of 6. For the same molecule, the survivor count [5] was 1 of 6 and the survivor count [6] was 0 of 6.
`Cc1ccc(C)c(C(=O)/C=C/C(=O)O)c1` was tested, and the T/C [3] was 126 % of control, the T/C [4] was 134 % of control and the T/C [5] was 125 and 140 % of control [4 of 5 alive]. For the same molecule, the survivor count [5] was 0 of 6 and the survivor count [6] was 0 of 5, 0 of 6, 2 of 6.
`COc1ccccc1N/N=c1/c2n(-c3ccc(Cl)cc3)c(=S)n(-c3ccccn3)c1=NCCN=2` was tested, and the survivor count [5] was 4 of 6 and the survivor count [6] was 1 of 6.
`Cn1c(=O)c2c(nnc(-c3ccc(Cl)c(Cl)c3)[n+]2[O-])n(C)c1=O` was tested, and the survivor count (dose: 50.0 mg/kg/injection, schedule: Q01DX001 (ip), vehicle: Klucel (hydroxypropylcellulose) (HPC)) was 1 of 6 and the survivor count (dose: 100.0 mg/kg/injection, schedule: Q01DX001 (ip), vehicle: Klucel (hydroxypropylcellulose) (HPC)) was 2 of 6.
`NC(=O)C(CC(=O)O)NC(=O)OCc1ccccc1` (stereo not drawn) was tested, and the T/C (dose: 66.0 mg/kg/injection, schedule: Q01DX009 (ip), vehicle: other) was 128 % of control and the T/C (dose: 100.0 mg/kg/injection, schedule: Q01DX009 (ip), vehicle: other) was 127 % of control.
`CCN(CC)CCCC(C)Nc1cc(C)nc2ccc(N(C)C)cc12` (stereo not drawn) was tested, and the survivor count (dose: 120.0 mg/kg/injection, schedule: Q01DX005 (ip), vehicle: saline with Tween-80) was 0 of 6 and the survivor count (dose: 240.0 mg/kg/injection, schedule: Q01DX005 (ip), vehicle: saline with Tween-80) was 0 of 6.
With `CN(C)C1C(=O)C(C(N)=O)=C(O)C2(O)C(=O)C3=C(O)c4c(O)cccc4C(C)(O)C3C(O)C12.[Cl][Sb]([Cl])[Cl]` (stereo not drawn) the survivor count [6] was 1 of 6.
`CCOP(=O)(OCC)C(=C(Cl)Cl)C(Cl)Cl` was tested, and the survivor count [1] was 0 of 6 and 2 of 6 and the survivor count [2] was 0 of 6.
For `CNC1C(O)C(OC2C(N)CC(N)C(OC3OC(CN)=CCC3N)C2O)OCC1(C)O` (stereo not drawn), the survivor count (dose: 250.0 mg/kg/injection, schedule: Q01DX009 (ip), vehicle: saline) was 3 of 6.
In the case of `CCOc1ccc2nc3cc(N=Nc4ccc(N)nc4N)ccc3c(N)c2c1`, the survivor count [5] is reported as 3 of 6 and the survivor count [6] is reported as 0 of 6.
In the case of `COc1cc2cc3c(c(O)c2c(O)c1/C=C/C(C)C)C(=O)CC(C)(OC(C)=O)C3` (stereo not drawn), the survivor count (dose: 10.0 mg/kg/injection, schedule: Q01DX005 (ip), vehicle: Klucel (hydroxypropylcellulose) (HPC)) is reported as 5 of 5, the survivor count (dose: 20.0 mg/kg/injection, schedule: Q01DX005 (ip), vehicle: Klucel (hydroxypropylcellulose) (HPC)) is reported as 5 of 5 and the survivor count (dose: 40.0 mg/kg/injection, schedule: Q01DX005 (ip), vehicle: Klucel (hydroxypropylcellulose) (HPC)) is reported as 2 of 5.
In the case of `CCn1c(Cl)c(/C=N\Nc2cccc([N+](=O)[O-])c2)c2ccccc21`, the survivor count (dose: 200.0 mg/kg/injection, schedule: Q01DX001 (ip), vehicle: Klucel (hydroxypropylcellulose) (HPC)) is reported as 6 of 6 and the survivor count (dose: 400.0 mg/kg/injection, schedule: Q01DX001 (ip), vehicle: Klucel (hydroxypropylcellulose) (HPC)) is reported as 6 of 6.
For `C[n+]1c(-c2cccc(OCCCCCCCCCCOc3cccc(-c4c5cc(N)ccc5c5ccc(N)cc5[n+]4C)c3)c2)c2cc(N)ccc2c2ccc(N)cc21`, the T/C (dose: 0.19 mg/kg/injection, schedule: Q01DX005 (ip), vehicle: water) was 141 % of control, the T/C (dose: 0.19 mg/kg/injection, schedule: Q01DX009 (ip), vehicle: water) was 141 % of control and the T/C (dose: 0.38 mg/kg/injection, schedule: Q01DX009 (ip), vehicle: water) was 133 % of control. For the same molecule, the T/C (dose: 0.39 mg/kg/injection, schedule: Q01DX005 (ip), vehicle: water) was 144 % of control, the T/C (dose: 0.39 mg/kg/injection, schedule: Q01DX009 (ip), vehicle: water) was 139 % of control and the T/C (dose: 0.75 mg/kg/injection, schedule: Q01DX009 (ip), vehicle: water) was 142 % of control. The T/C (dose: 1.5 mg/kg/injection, schedule: Q01DX009 (ip), vehicle: water) was 142 % of control, the T/C (dose: 1.56 mg/kg/injection, schedule: Q01DX005 (ip), vehicle: water) was 141 % of control and the survivor count (dose: 3.12 mg/kg/injection, schedule: Q01DX005 (ip), vehicle: water) was 6 of 6. The survivor count (dose: 6.25 mg/kg/injection, schedule: Q01DX005 (ip), vehicle: water) was 5 of 6, the survivor count (dose: 12.5 mg/kg/injection, schedule: Q01DX005 (ip), vehicle: water) was 0 of 6 and the survivor count (dose: 12.5 mg/kg/injection, schedule: Q01DX009 (ip), vehicle: water) was 3 of 6.
In the case of `ClCCN(CCCl)c1ccc(CNCCCNCc2ccc(N(CCCl)CCCl)cc2)cc1`, the T/C (dose: 1.25 mg/kg/injection, schedule: Q01DX009 (ip), vehicle: saline sonified) is reported as 142 % of control.
With `CC(=O)c1ccccc1N=O` the survivor count (dose: 200.0 mg/kg/injection, schedule: Q01DX001 (ip), vehicle: other) was 3 of 6.
`Cc1ccc(S(=O)(=O)C(Cl)Cl)cc1` was tested, and the T/C (dose: 200.0 mg/kg/injection, schedule: Q04DX003 (ip), vehicle: saline with Tween-80) was 125 % of control.
`Cc1ccc(S(=O)(=O)OCCN(CCOS(=O)(=O)c2ccc(C)cc2)c2ccc(F)cc2)cc1` was tested, and the T/C (dose: 2.5 mg/kg/injection, schedule: Q01DX009 (ip), vehicle: other) was 131 % of control.
In the case of `CO/N=C(\C(O)C(C)O)C(OC)C1Cc2cc3cc(OC4CC(OC(C)=O)C(OC5CC(O)C(OC)C(C)O5)C(C)O4)cc(O)c3c(O)c2C(=O)C1OC1CC(OC2CC(OC3CC(C)(O)C(OC(=O)C(C)C)C(C)O3)C(O)C(C)O2)C(O)C(C)O1` (stereo not drawn), the T/C (dose: 0.13 mg/kg/injection, schedule: Q01DX005 (ip), vehicle: water) is reported as 126 % of control, the T/C (dose: 0.5 mg/kg/injection, schedule: Q01DX005 (ip), vehicle: water) is reported as 128 and 131 % of control and the T/C (dose: 1.0 mg/kg/injection, schedule: Q01DX005 (ip), vehicle: water) is reported as 135 % of control. The survivor count (dose: 2.0 mg/kg/injection, schedule: Q01DX005 (ip), vehicle: water) was 1 of 5.
In the case of `CN(N=Nc1ccc(C#N)cc1)C(C)(C)C`, the survivor count [6] is reported as 0 of 6.
`O=C(O)C1CSC(c2ccncc2)N1` (stereo not drawn) was tested, and the survivor count (dose: 100.0 mg/kg/injection, schedule: Q01DX009 (ip), vehicle: saline) was 6 of 6.
For `N#CC1C(=O)NC(=S)NC1c1ccc(Cl)cc1` (stereo not drawn), the survivor count (dose: 200.0 mg/kg/injection, schedule: Q01DX009 (ip), vehicle: Klucel (hydroxypropylcellulose) (HPC)) was 4 of 6.
In the case of `C/C(=N\NC(=S)N(C)C)c1ccccn1`, the survivor count (dose: 12.5 mg/kg/injection, schedule: Q01DX009 (ip), vehicle: saline with Tween-80) is reported as 4 of 6 and the survivor count (dose: 25.0 mg/kg/injection, schedule: Q01DX009 (ip), vehicle: saline with Tween-80) is reported as 2 of 6.
`Oc1cc2ccccc2c(-c2c(O)c(O)cc3ccccc23)c1O` was tested, and the survivor count [6] was 0 of 6 and the T/C (dose: 400.0 mg/kg/injection, schedule: Q01DX001 (ip), vehicle: saline with Tween-80) was 125 and 126 % of control.
With `Cc1nc(N)nc(N)c1N1CCN(c2ccc(C(=O)NC(C(=O)O)C(=O)O)cc2)CC1` the T/C (dose: 1.87 mg/kg/injection, schedule: Q01DX005 (ip), vehicle: Klucel + Tween-80) was 145 % of control, the survivor count (dose: 7.5 mg/kg/injection, schedule: Q01DX005 (ip), vehicle: Klucel + Tween-80) was 6 of 6 and the survivor count (dose: 15.0 mg/kg/injection, schedule: Q01DX005 (ip), vehicle: Klucel + Tween-80) was 6 of 6. For the same molecule, the survivor count (dose: 30.0 mg/kg/injection, schedule: Q01DX005 (ip), vehicle: Klucel + Tween-80) was 6 of 6, the survivor count (dose: 60.0 mg/kg/injection, schedule: Q01DX005 (ip), vehicle: Klucel + Tween-80) was 6 of 6 and the survivor count (dose: 120.0 mg/kg/injection, schedule: Q01DX005 (ip), vehicle: Klucel + Tween-80) was 1 of 6. For the same molecule, the survivor count (dose: 240.0 mg/kg/injection, schedule: Q01DX005 (ip), vehicle: Klucel + Tween-80) was 5 of 6.
